For at least one compound, name, drawing or mass did not settle the structure.
Key:
[1] = system: SW480; experiment: Cell viability (CellTiter-Glo), SW480; type: cell-based, human; conditions: SW480, 72 hrs
Procedure: (§1) CELL VIABILITY ASSAY. […] Cell viability was assayed at 72 hrs by addition of CellTiter-Glo Assay reagents according to the manufacturer's protocol (Promega), and luminescence measured using a F200 PRO microplate reader (TECAN). […] Excluding high-throughput drug screenings, viability assays were performed in at least triplicate and the data normalized to 1% vehicle-treated control wells. IC50 values were determined by nonlinear regression analysis using Prism software (Graphpad). Dilutions of compounds was performed using a TECAN D300e Digital Dispenser from 10 mM stocks. The BLISS calculation was determined using the Combenefit program as previously described by Di Veroli et al., Bioinformatics.

[2] = system: U937; experiment: Cell viability (CellTiter-Glo), U937; type: cell-based, human; conditions: U937, 72 hrs
Procedure: as §1

[3] = system: AML patient derived xenografts; experiment: Primary patient AML samples in PDX, engraftment percent (hCD45+ cells); type: in vivo, mice; conditions: treated daily for 3 weeks
[4] = system: OCI-AML3; experiment: Cell viability (CellTiter-Glo), OCI-AML3; type: cell-based, human; conditions: OCI-AML3, 72 hrs
Procedure: as §1

[5] = system: COLO230; experiment: Cell viability (CellTiter-Glo), COLO230; type: cell-based, human; conditions: COLO230, 72 hrs
Procedure: as §1

CC1(C)CCC(CN2CCN(c3ccc(C(=O)NS(=O)(=O)c4ccc(NCC5CCOCC5)c([N+](=O)[O-])c4)c(Oc4cnc5[nH]ccc5c4)c3)CC2)=C(c2ccc(Cl)cc2)C1 [Venetoclax]
single agent effect on cell viability [1]: not effective at submicromolar concentrations
single agent effect on cell viability [2]: effective as single agent
Engraftment Percent (percent change in number of hCD45+ cells) [3]: decreased engraftment percent
single agent effect on cell viability [4]: effective as single agent
single agent effect on cell viability [5]: not effective at submicromolar concentrations
